Source: patent US9969698B2, “Quinoxalinyl-piperazinamide methods of use” (REXAHN PHARMACEUTICALS, INC., priority 2015, dated 2018)
For at least one compound, name, drawing or mass did not settle the structure.

Test system: human renal tumor xenografts (Caki-1)
Type: in vivo
Details: 60 mg/kg; daily for 21 days
Description: The efficacy of RX-5902 in human cancer xenograft mouse models is examined. Female nude mice (nu/nu, Harlan or CRL: NU(NCr)-Foxn1^nu, Charles River), 9-10 weeks old, with a body weight (BW) range of 15-30 g on day 1 of the study, are fed ad libitum water (reverse osmosis, 1 ppm C1), and NIH 31 Modified and Irradiated Lab Diet® consisting of 18.0% crude protein, 5.0% crude fat, and 5.0% crude fiber. The mice are housed on irradiated Enrich-o'Cobs™ Laboratory Animal Bedding in static microisolators on a 12-hour light cycle at 20-22° C. (68-72° F.) and 40-60% humidity. The study complies with the recommendations of the Guide for, Care and Use of Laboratory Animals with respect to restraint, husbandry, surgical procedures, feed and fluid regulation, and veterinary care. […]
The cells are harvested during exponential growth and re-suspended with phosphate buffered saline. Each test animal receives a subcutaneous (s.c.) injection of 5×10^6 tumor cells into the right flank and tumor growth is monitored as the average tumor size approaches the target range of 80-300 mm^3. […] Tumors and body weights are measured regularly until the study is terminated.
Tumors are measured in two dimensions using calipers, and volume is calculated using the formula: […]
Animals are monitored individually for tumor growth until Day 71. […] The time to endpoint (TTE) for each mouse is calculated with the following equation: […]

**Q.** `CCN(CC)CCNC(=O)c1c(C)[nH]c(/C=C2\C(=O)Nc3ccc(F)cc32)c1C` [Sunitinib, reference compound] was tested. Which “TGD (positive control)” value did it give?
**A.** resulted in TGD
